Assay [1] concerns the target human TUBB4B p.P259S with a C-terminal ALFA tag (stable IMCD3 line) (human) (UniProt Q9NYC9). Kind of assay: co-IP; TUBB4B-ALFA captured on ALFA SelectorPE beads from cleared lysates of stable IMCD3 lines (plates on ice 30 min to depolymerize microtubules; BRB80 pH 6.8, 10% glycerol, 0.2% Triton X-100, 1 mM GTP), 1 hour at RT, eluted with ALFA-elution peptide; immunoblot for α-tubulin and TBCD. (Immunoblotting shows a protein as a band on a membrane.)

By UniProt entry, the sequences of proteins in these tests, tags left out. Where a name states a change or a piece, a line headed by the entry shows the natural chain unless it says otherwise.
UniProt Q9NYC9: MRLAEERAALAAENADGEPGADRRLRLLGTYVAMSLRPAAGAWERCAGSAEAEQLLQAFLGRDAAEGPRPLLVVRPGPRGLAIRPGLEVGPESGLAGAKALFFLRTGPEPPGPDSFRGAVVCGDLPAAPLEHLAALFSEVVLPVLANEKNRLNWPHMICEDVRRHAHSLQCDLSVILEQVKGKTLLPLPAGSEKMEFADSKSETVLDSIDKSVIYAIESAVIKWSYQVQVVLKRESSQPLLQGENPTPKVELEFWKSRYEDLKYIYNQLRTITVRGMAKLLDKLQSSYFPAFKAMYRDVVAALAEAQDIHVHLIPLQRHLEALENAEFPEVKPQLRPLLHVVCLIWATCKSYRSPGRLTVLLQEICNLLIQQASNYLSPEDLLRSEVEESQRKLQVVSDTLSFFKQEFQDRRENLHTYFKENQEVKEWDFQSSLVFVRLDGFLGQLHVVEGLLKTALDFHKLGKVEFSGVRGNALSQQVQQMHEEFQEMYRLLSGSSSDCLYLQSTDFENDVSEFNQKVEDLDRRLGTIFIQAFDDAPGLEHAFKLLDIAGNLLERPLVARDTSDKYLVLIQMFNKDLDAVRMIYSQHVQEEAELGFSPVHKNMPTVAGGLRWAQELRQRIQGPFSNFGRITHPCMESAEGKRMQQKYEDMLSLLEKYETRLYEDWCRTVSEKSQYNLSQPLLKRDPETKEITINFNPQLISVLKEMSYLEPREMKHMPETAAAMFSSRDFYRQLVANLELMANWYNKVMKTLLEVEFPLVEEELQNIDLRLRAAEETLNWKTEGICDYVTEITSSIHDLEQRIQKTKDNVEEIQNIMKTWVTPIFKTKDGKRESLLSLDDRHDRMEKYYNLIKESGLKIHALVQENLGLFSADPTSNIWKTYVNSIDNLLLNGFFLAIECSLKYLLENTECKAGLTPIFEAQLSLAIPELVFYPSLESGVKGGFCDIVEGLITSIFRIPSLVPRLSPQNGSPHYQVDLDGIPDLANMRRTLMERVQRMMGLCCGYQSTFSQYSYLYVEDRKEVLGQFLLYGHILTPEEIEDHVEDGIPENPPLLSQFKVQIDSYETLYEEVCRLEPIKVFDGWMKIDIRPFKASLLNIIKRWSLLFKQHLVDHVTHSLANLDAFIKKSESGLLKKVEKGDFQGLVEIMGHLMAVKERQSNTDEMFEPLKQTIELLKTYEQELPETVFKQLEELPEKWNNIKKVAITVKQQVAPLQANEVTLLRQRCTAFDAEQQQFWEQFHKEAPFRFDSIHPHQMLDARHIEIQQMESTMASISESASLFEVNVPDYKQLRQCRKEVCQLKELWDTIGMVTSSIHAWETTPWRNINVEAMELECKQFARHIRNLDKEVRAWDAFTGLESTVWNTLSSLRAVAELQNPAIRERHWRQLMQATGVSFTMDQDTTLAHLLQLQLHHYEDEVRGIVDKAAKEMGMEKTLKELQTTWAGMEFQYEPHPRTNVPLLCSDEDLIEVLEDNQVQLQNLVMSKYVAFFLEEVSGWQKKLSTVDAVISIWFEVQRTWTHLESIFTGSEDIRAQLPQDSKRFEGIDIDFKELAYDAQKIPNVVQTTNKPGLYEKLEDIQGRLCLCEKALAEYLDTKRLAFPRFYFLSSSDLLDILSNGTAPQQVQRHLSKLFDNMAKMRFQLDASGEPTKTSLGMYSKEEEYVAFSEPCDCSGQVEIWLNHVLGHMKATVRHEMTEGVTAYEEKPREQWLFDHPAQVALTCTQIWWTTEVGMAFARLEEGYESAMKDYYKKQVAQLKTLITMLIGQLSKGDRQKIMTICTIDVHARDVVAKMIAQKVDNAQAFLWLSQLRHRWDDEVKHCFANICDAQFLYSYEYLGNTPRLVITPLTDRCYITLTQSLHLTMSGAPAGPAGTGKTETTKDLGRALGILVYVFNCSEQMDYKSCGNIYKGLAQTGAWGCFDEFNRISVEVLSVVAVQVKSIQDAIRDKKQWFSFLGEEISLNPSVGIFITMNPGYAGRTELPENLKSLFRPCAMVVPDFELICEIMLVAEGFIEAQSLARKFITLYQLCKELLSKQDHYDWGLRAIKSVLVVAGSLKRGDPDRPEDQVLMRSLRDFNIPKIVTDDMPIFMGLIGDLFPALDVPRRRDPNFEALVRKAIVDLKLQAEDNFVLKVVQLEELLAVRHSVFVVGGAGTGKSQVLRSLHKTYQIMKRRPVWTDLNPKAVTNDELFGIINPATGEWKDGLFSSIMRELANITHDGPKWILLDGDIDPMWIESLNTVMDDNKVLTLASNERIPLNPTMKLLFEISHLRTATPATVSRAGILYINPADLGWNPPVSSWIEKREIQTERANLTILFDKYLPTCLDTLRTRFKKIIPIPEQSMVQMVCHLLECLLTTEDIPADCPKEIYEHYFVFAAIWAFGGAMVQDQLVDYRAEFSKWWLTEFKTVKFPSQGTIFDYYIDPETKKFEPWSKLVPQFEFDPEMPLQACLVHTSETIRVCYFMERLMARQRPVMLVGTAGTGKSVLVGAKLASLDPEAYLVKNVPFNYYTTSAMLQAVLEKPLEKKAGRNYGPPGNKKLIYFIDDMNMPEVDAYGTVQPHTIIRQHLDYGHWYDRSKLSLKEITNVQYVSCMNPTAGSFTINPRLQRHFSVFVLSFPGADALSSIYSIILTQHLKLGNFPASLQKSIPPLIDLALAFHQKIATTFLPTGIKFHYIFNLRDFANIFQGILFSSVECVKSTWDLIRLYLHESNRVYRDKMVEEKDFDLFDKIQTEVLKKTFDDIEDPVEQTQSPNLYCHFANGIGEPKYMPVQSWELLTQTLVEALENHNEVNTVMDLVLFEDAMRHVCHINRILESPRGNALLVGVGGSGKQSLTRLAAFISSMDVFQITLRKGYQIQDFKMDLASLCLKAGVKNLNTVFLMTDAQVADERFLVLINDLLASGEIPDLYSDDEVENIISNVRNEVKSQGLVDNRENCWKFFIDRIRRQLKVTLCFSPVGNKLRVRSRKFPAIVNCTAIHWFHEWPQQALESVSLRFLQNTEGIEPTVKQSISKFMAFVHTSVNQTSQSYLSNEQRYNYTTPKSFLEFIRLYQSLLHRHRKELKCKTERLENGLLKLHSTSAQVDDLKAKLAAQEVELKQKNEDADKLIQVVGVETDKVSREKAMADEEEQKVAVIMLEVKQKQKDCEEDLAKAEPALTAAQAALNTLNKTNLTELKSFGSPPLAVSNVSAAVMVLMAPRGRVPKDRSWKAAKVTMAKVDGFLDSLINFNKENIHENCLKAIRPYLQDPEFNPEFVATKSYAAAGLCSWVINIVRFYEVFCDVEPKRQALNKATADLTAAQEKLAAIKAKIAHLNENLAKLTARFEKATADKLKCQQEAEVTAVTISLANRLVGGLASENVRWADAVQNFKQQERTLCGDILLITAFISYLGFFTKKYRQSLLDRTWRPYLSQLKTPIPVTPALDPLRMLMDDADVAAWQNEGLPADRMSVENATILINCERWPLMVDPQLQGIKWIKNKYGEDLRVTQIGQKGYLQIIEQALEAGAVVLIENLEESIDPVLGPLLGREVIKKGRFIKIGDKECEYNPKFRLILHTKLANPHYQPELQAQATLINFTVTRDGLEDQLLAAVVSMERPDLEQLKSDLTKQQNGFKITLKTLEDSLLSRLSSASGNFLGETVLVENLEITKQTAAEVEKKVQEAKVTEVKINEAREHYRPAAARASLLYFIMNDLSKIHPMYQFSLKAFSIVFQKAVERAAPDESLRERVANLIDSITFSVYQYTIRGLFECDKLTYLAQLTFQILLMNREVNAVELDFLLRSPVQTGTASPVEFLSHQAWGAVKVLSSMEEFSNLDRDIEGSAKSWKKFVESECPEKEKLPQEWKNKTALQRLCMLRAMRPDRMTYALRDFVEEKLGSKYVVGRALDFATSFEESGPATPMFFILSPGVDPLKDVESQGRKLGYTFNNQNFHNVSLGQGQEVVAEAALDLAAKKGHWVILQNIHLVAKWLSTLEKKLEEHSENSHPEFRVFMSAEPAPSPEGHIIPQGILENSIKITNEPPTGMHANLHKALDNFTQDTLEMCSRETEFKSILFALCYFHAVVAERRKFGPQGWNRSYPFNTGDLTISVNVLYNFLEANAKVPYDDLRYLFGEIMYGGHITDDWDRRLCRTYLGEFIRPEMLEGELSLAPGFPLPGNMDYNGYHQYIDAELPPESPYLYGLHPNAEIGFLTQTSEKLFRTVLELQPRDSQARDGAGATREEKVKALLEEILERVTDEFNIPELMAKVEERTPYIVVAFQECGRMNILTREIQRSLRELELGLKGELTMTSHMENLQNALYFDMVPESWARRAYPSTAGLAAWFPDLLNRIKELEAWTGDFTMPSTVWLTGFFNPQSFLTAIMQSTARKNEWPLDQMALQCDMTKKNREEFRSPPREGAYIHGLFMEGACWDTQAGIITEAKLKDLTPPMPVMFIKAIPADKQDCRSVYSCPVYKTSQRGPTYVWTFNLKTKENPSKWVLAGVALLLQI
UniProt Q8BYA0: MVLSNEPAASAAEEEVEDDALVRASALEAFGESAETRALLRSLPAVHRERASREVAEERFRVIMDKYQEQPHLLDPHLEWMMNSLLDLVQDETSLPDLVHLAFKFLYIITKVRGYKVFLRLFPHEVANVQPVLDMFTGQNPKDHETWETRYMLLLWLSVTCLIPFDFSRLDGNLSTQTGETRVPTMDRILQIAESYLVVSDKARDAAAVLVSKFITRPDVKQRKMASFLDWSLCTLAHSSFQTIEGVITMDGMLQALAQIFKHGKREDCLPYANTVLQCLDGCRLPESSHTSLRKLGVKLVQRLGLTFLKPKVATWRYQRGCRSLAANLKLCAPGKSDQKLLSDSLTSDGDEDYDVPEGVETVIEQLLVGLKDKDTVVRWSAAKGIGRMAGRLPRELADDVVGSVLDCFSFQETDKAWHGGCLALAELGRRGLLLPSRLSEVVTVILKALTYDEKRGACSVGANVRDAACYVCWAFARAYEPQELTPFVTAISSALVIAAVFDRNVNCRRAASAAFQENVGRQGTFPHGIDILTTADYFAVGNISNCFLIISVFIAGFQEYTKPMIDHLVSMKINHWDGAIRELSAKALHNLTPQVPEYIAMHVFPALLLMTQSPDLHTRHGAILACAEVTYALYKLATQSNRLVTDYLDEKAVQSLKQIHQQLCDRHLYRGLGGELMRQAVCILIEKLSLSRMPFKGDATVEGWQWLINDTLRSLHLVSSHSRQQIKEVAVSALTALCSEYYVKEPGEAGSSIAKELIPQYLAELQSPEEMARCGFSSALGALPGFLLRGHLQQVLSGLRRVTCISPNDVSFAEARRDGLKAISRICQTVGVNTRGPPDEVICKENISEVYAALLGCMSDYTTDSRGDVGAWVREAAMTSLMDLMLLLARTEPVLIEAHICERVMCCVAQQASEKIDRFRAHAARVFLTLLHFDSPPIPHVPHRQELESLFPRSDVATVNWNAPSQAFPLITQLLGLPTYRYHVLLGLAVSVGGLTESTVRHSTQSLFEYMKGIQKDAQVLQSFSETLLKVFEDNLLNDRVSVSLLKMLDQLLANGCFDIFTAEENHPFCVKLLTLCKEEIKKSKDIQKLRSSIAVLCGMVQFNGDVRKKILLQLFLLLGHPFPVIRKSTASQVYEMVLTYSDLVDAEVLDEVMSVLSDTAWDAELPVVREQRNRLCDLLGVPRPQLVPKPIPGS

For assay [2], the target named is human TUBB4B p.P259L with a C-terminal ALFA tag (stable IMCD3 line) (human) (UniProt Q9NYC9). The assay is described as above.

The source of these data is paper PMC7616230.

Results are given in words; binding and its absence hold for the method and conditions named. Binding seen in cells or lysates may run through a third protein. A result given as binding can be weak or reduced; the word gives no strength.

For “TBCD (tubulin folding co-factor D), endogenous in IMCD3 cells (from UniProt Q8BYA0 1-1196)”, the binding result in assay [1] and in assay [2] was “binds” each time.
